No constants are given. Whether binding was seen depends on the method and setting. Some entries that bind do so weakly or less than the wild type.
Columns and labels:
[1] = molecular target: recombinant cynomolgus CLEC12A-His (cynomolgus monkey); test: SPR, purified murine subclone mAb and Cyno CLEC12A-His
[2] = molecular target: recombinant cynomolgus CLEC12A-His (cynomolgus monkey); test: SPR
[3] = molecular target: human CLEC12A expressed on cells (human) (UniProt Q5QGZ9); test: flow cytometry on Ba/F3-hCLEC12A cells, fold over background
[4] = molecular target: human CLEC12A expressed on cells (human) (UniProt Q5QGZ9); test: flow cytometry on HL-60 cells, fold over background
[5] = molecular target: human CLEC12A expressed on cells (human) (UniProt Q5QGZ9); test: flow cytometry, Ba/F3-hCLEC12A, HL60, PL21
[6] = molecular target: human CLEC12A expressed on cells (human) (UniProt Q5QGZ9); test: flow cytometry on PL-21 cells, fold over background
[7] = molecular target: human CLEC12A expressed on cells (human) (UniProt Q5QGZ9); test: flow cytometry

The chains behind the UniProt entries cited, without tags or fusion partners. Where a name states a change or a piece, a line headed by the entry shows the natural chain unless it says otherwise.
UniProt Q5QGZ9: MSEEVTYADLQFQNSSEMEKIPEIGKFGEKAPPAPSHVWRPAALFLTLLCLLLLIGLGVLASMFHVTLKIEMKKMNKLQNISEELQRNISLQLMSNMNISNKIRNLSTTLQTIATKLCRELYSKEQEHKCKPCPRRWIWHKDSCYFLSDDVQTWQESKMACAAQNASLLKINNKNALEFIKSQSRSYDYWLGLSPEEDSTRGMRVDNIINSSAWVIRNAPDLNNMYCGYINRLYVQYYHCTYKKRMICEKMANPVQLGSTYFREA

B1: 15A10.G8 (antibody, V domains shown)
VH: EVQLQESGAELVRSGASIKLSCAASAFNIKDYFIHWVRQRPDQGLEWIGWIDPENDDTEYAPKFQDKATMTADTSSNTAYLQLSSLTSADTAVYYCNALWSRGGYFDYWGQGTTLTVSS
VL: EVLLTQSPAIIAASPGEKVTITCSARSSVSYMSWYQQKPGSSPKIWIYGISKLASGVPARFSGSGSGTYFSFTINNLEAEDVATYYCQQRSYYPFTFGSGTKLEIK
binding [1]: binds
binding [2]: binds

B2: AB0306 (antibody, IgG1, V domains shown)
VH: EVQLVESGGGVVQPGGSLRLSCAASGFTFNAFGMHWVRQAPGKGLEWVAFISSGSTSIYYANTVKGRFTISRDNSKNTLYLQMNSLRAEDTAVYYCARDGYPTGGAMDYWGQGTSVTVSS
VL: DIQMTQSPSSLSASVGDRVTITCKASQDIYNYLSWFQQKPGKAPKPLIYRANILVSGVPSRFSGSGSGQDYTFTISSLQPEDIATYYCLQFDAFPFTFGSGTKLEIK
binding [3]: binds
binding [4]: binds
binding [5]: binds
binding [6]: binds

B3: hcFAE-A49.h6E7 (bispecific antibody, V domains shown)
VH 1: EVQLVQSGAEVKKPGASVKVSCKASGYSFTDYYMHWVRQAPGQGLEWIGRINPYNGAAFYSQNFKDRVTLTVDTSTSTAYLELSSLRSEDTAVYYCAIERGADLEGYAMDYWGQGTLVTVSS
VL 1: DIQMTQSPSSLSASVGDRVTITCRASQSVSTSSYNYMHWYQQKPGKPPKLLIKYASNLESGVPSRFSGSGSGTDFTLTISSLQPEDFATYYCQHSWEIPLTFGQGTKVEIK
VH 2: EVQLVESGGGLVKPGGSLRLSCAASGFTFSSYSMNWVRQAPGKGLEWVSSISSSSSYIYYADSVKGRFTISRDNAKNSLYLQMNSLRAEDTAVYYCARGAPMGAAAGWFDPWGQGTLVTVSS
VL 2: DIQMTQSPSSVSASVGDRVTITCRASQGISSWLAWYQQKPGKAPKLLIYAASSLQSGVPSRFSGSGSGTDFTLTISSLQPEDFATYYCQQGVSFPRTFGGGTKVEIK
binding [7]: binds
